Measured values as given in the supplement of paper PMC7024190.
The other results are listed elsewhere or left out. Repeats in this data set agree poorly, so a single value says little.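 Human embryonic kidney cells were transiently transfected with a plasmid bearing a Renilla luciferase gene under the HSV-TK promoter. This first-round screen tests roughly ten thousand compounds for ones that increase reporter output.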

System: HEK 293FT
Assay: log relative Renilla luciferase luminescence (reporter expression vs reference, reference not stated) (log (base not stated)); higher = higher recombinant reporter expression
Details: 10 µM; time after transfection 48 h
Method: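 HEK 293FT cells transiently transfected with pRL-TK (Renilla luciferase) were treated with compounds at 10 uM and luminescence was read about 42 h later. Values are log relative Renilla luminescence (log base and reference not stated). Single-pass screen; 2080 natural products library.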

SMILES | log
C=C(C)[C@@H](O)[C@H](O)c1c(OC)ccc2ccc(=O)oc12 [Minumicrolin] | -0.0547
COc1cc(/C=C/C=O)cc(OC)c1O [Sinapaldehyde] | -0.0686
C[C@@H]([C@H]1CC[C@H]2[C@@H]3CC[C@H]4C(=O)C(NC(=O)c5ccccc5)=CC[C@]4(C)[C@H]3CC[C@]12C)N(C)C [Axillaridine A] | -0.0883
COc1c2c(cc3oc(CO)cc(=O)c13)O[C@H](C(C)(C)O)C2 [Cimifugin] | 0.0634
C=C1C(OC(C)=O)C(OC(C)=O)C(OC(C)=O)C(C)(C)C=CC(C)C(OC(C)=O)C2(O)CC(C)(OC(C)=O)C(OC(=O)c3ccccc3)C2C1OC(C)=O (stereo not given) | -0.146
C=C(CC[C@@H](C)[C@H]1CC[C@@]2(C)[C@@H]3CC[C@H]4[C@](C)(C(=O)O)[C@@H](O)C[C@H](O)[C@@]45C[C@@]35CC[C@]12C)C(C)C [23-deoxojessic acid] | 0.0737
C[C@@]1(CO)C[C@@H](O)C[C@@]2(C)[C@@H]3CC[C@](C)([C@@H](O)CO)C=C3CC[C@H]12 [Kirenol] | -0.0264
C=C(C)[C@H](CC=C(C)C)Cc1c(O)cc(O)c2c1O[C@H](c1ccc(O)cc1OC)CC2=O [Leachianone A] | -0.131
CC1=CC(=O)CC(C)(C)[C@H]1CC[C@@H](C)O[C@@H]1O[C@H](CO)[C@@H](O)[C@H](O)[C@H]1O [Blumenol C glucoside] | -0.327
C/C=C1\C[N+]2([O-])CCC1C(CO)(C(=O)OC)c1[nH]c3ccccc3c1C2 (stereo not given) [Vallesamine N-oxide] | -0.321
C[C@H]1[C@H](C)CC[C@]2(C(=O)O)CC[C@]3(C(=O)O)C(=CC[C@@H]4[C@@]5(C)CC[C@H](O[C@@H]6O[C@H](C)[C@@H](O)[C@H](O)[C@H]6O)C(C)(C)[C@@H]5CC[C@]43C)[C@H]12 [Quinovin] | -0.2
CC(=O)Oc1cc(O)cc2oc(-c3ccccc3)cc(=O)c12 [5-Acetoxy-7-hydroxyflavone] | -0.0137
C=C(CO)[C@@H]1CC[C@@H]2[C@]3(CC[C@]4(C)[C@@H]([C@H](C)CC/C=C(\C)C=O)CC[C@@]24C)C[C@]13CCC(=O)O [Coronalolic acid] | 0.0016
C=C1CC[C@]2(C)CC[C@]3(C)[C@H](CC[C@@H]4[C@@]5(C)CC[C@H](OC(C)=O)C(C)(C)[C@@H]5CC[C@]43C)[C@H]2[C@@H]1C [Taraxasterol acetate] | -0.111
CC(C)(O)[C@@H]1CC[C@]2(C)CCC[C@](C)(O)[C@H]2C1 [Pterodondiol] | 0.08
COc1cc(OC)c2ccc(=O)oc2c1C[C@@H](O)C(C)(C)O [Isomexoticin] | -0.215
COc1ccc(-c2oc3c(OC)c(O)c(OC)c(O)c3c(=O)c2OC)cc1 [Araneosol] | -0.0599
COC(=O)/C=C/c1c[nH]c2ccccc12 [Indole-3-acrylic acid methyl ester] | -0.193
COc1c(O)cc2c(c1O)C(=O)C[C@@H](c1ccc(O)cc1)O2 [6-Methoxynaringenin] | 0.0912
C=C(C(=O)O)[C@@H]1CC[C@@]2(C)CCCC(=C)[C@@]2(O)C1 [5beta-Hydroxycostic acid] | -0.042

SMILES | log
COc1ccc(-c2oc3c(OC)c(O)cc(O)c3c(=O)c2O)cc1 [Prudomestin] | -0.426
COc1cc(/C=C/COC(C)=O)cc(OC)c1O[C@@H]1O[C@H](COC(C)=O)[C@@H](OC(C)=O)[C@H](OC(C)=O)[C@H]1OC(C)=O [Syringin pentaacetate] | -0.111
CC(C)(O[C@@H]1O[C@H](CO)[C@@H](O)[C@H](O)[C@H]1O)[C@H](O)COc1c2occc2cc2ccc(=O)oc12 [Heraclenol 3'-O-beta-D-glucopyranoside] | 0.437
C[C@@H](CO)CCc1c[nH]c2ccccc12 [Paniculidine C] | -0.327
C=C1CC[C@H]2C(C)(C)[C@@H](O)CC[C@]2(C)[C@H]1CC/C(C)=C/C(=O)O [Alepterolic acid] | 0.0208
C[C@H]1C(=O)CC[C@@H]2[C@]1(C)CC[C@H]1[C@@]2(C)CC[C@@]2(C)[C@@H]3CC(C)(C)CC[C@]3(C)CC[C@]12C [Friedelin] | -0.0313
COc1c(O)cc2c(=O)oc3c(OC)c(O)cc4c(=O)oc1c2c34 [3,3'-Di-O-methylellagic acid] | 0.143
OCCC1(O)CCC(O)CC1 (stereo not given) [Rengyol] | -0.0904
CC[C@H](/C=C/[C@@H](C)[C@H]1CC[C@H]2[C@@H]3[C@H](O)C=C4C[C@@H](O)CC[C@]4(C)[C@H]3CC[C@]12C)C(C)C [7alpha-Hydroxystigmasterol] | -0.129
C=C(C)C(O)CC/C(C)=C/COc1c2occc2cc2ccc(=O)oc12 (stereo not given) [Lansiumarin C] | 0.101
C[C@H]1[C@H](O)CC[C@@H]2[C@]1(C)CC[C@H]1[C@@]2(C)CC[C@@]2(C)[C@H]3CC(C)(C)CC[C@]3(C)CC[C@]12C [Friedelanol] | -0.17
C=C1CC[C@@H]2[C@](C)(CCC[C@]2(C)C(=O)O)[C@H]1CC/C(C)=C/COC(C)=O [Acetylisocupressic acid] | 0.0251
CC(=O)c1ccc(O)cc1O [2',4'-Dihydroxyacetophenone] | -0.0982
COc1cc2c(=O)oc3c(OC)c(O)cc4c(=O)oc(c1OC)c2c34 [2,3,8-Tri-O-methylellagic acid] | 0.0433
Oc1ccc(C2Oc3cc(O)c4c5c3C2c2cc(O)cc(O)c2C(c2ccc(O)cc2)C5C(c2cc(O)cc(O)c2)C4c2ccc(O)cc2)cc1 (stereo not given) [Viniferol D] | 0.0396
CC(=O)O[C@H]1C(=O)c2c(O)cc(O)cc2O[C@@H]1c1ccccc1 [3-O-Acetylpinobanksin] | 0.0094
CCc1ncc(OC)c2c1[nH]c1c(O)cccc12 [Picrasidine J] | 0.046
C=C(C)[C@@H]1CC[C@]2(C(=O)OC)CC[C@]3(CO)[C@H](CC[C@@H]4[C@@]5(C)CC[C@@H](O)C(C)(C)[C@@H]5CC[C@]43C)[C@@H]12 [3,27-Dihydroxy-20(29)-lupen-28-oic acid methyl ester] | -0.074
Cc1coc2c1C(=O)C(=O)c1c-2ccc2c1CCCC2(C)CO (stereo not given) [Tanshinone IIB] | -0.285
CC(C)C[C@@H]1c2c(O)c(C=O)c(O)c(C=O)c2O[C@@H](c2c(O)c(C=O)c(O)c(C=O)c2O)[C@@H]1C(C)C [Sideroxylonal A] | -0.253

Reformatted field by field: 3 of the compounds above.
COc1cc(/C=C/COC(C)=O)cc(OC)c1O[C@@H]1O[C@H](COC(C)=O)[C@@H](OC(C)=O)[C@H](OC(C)=O)[C@H]1OC(C)=O [Syringin pentaacetate]
  log: -0.111
CC(C)(O[C@@H]1O[C@H](CO)[C@@H](O)[C@H](O)[C@H]1O)[C@H](O)COc1c2occc2cc2ccc(=O)oc12 [Heraclenol 3'-O-beta-D-glucopyranoside]
  log: 0.437
C[C@@H](CO)CCc1c[nH]c2ccccc12 [Paniculidine C]
  log: -0.327
